Assay results taken from paper PMC3695523, “Reconstitution and characterization of eukaryotic N6-threonylcarbamoylation of tRNA using a minimal enzyme system” (Nucleic Acids Research, 2013).
No constants are given. Whether binding was seen depends on the method and setting.

Molecular target: Qri7 (30-407) V134R (yeast (Saccharomyces cerevisiae)) (UniProt P43122)
Assay: condition: 0.3125, 0.0625, 0.125, 0.250, 0.5 or 1 mg/ml (methods); AUC; sedimentation velocity, 20°C, 42 000 rpm, 0.3125, 0.0625, 0.125, 0.250, 0.5 or 1 mg/ml protein; both purified

B1: Qri7 (30-407) V134R (enzyme, UniProt P43122 30-407)
chain: RKGYKVLAIETSCDDTCVSVLDRFSKSAAPNVLANLKDTLDSIDEGGIIPTKAHIHHQARIGPLTERALIESNAREGIDLICVTRGPGMPGSLSGGLDFAKGLARAWNKPLIGVHHMLGHLLIPRMGTNGKVPQFPFVSLLVSGGHTTFVLSRAIDDHEILCDTIDIAVGDSLDKCGRELGFKGTMIAREMEKFINQDINDQDFALKLEMPSPLKNSASKRNMLSFSFSAFITALRTNLTKLGKTEIQELPEREIRSIAYQVQESVFDHIINKLKHVLKSQPEKFKNVREFVCSGGVSSNQRLRTKLETELGTLNSTSFFNFYYPPMDLCSDNSIMIGWAGIEIWESLRLVSDLDICPIRQWPLNDLLSVDGWRTDQL
  binding: no binding
